These are yes or no findings as the source states them, for the method shown. Binding seen in cells or lysates may run through a third protein. A result given as binding can be weak or reduced; the word gives no strength. Where a sequence is shown, tags or fusion partners need not be part of it.
Molecular target: T1, GFP-tagged TAOK1 (human) (UniProt Q7L7X3)
T1 sequence: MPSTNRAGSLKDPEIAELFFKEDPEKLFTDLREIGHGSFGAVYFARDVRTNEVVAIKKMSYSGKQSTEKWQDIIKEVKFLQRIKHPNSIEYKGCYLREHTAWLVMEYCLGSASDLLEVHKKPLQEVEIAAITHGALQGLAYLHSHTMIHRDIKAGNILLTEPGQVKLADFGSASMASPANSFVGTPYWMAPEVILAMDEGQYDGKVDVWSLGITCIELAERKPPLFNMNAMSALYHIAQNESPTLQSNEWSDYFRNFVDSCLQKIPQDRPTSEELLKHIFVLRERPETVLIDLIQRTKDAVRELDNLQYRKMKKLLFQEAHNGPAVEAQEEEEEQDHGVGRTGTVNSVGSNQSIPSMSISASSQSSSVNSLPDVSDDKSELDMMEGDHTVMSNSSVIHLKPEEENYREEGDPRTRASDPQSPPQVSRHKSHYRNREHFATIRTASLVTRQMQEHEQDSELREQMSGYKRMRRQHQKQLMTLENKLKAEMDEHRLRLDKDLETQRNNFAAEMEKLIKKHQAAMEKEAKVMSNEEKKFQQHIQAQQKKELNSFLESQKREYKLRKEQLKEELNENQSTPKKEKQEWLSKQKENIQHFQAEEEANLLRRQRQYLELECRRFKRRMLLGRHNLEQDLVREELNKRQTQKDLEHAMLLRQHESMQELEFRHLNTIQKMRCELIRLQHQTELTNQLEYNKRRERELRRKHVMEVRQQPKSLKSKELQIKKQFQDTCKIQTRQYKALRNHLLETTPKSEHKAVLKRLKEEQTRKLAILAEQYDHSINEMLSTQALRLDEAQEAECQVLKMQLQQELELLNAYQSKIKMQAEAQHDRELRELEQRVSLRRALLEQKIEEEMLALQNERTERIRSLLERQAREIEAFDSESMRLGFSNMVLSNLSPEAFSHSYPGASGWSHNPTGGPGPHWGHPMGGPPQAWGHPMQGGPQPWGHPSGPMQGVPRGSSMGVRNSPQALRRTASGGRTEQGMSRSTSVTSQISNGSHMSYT
Experiment: co-IP; GFP-tagged kinase immunoprecipitated with GFP-Trap beads from lysates of transfected HEK293 cells (serum-starved, serum, calyculin A or PMA, with or without kinase inhibitors); washed in 0.15 M and 0.5 M NaCl buffers; endogenous 14-3-3s detected with the pan-14-3-3 antibody K19

**Q.** Which binding does the source give for “endogenous 14-3-3s (human (endogenous in HEK293))” here?
**A.** binds
